{"source": "the supplement of paper PMC10689618", "note": "Counter-ions that a name gives are not always drawn. The list shows a part of the results. Many values rest on one well or one pass, so single values are uncertain.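 Labelled rat cortical synaptosomes were engulfed by primary human fetal astrocytes. Engulfment equaled a red/green ratio, corrected for calcein live-cell signal and normalized to the plate median. Compounds were toxic when calcein dropped over 30%, and reduced phagocytosis when below 70% of the median above 5 µM.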"}
{"system": "Human fetal astrocytes", "assay": "loss of total cells relative to no-compound high-control median (toxicity); higher = more toxic (fewer cells)", "details": "22.22 µM; 24 h", "units": {"loss of total cells": "%"}}
{"smiles": "CC(C)C[C@@H]1NC(=O)[C@H](CCCN)NC(=O)[C@H](C(C)C)NC(=O)[C@H](Cc2ccc(O)cc2)N[C@@H](CCC(=O)O)C(=O)N[C@@H](CC(N)=O)C(=O)[C@@H](Cc2ccccc2)NC(=O)[C@H](Cc2ccccc2)NC(=O)[C@@H]2CCCN2C(=O)[C@@H](Cc2ccccc2)NC1=O", "loss of total cells": 104}
{"smiles": "C[N+](C)(C)CC(O)CC(=O)[O-]", "note": "(stereo not given)", "loss of total cells": 4.5}
{"smiles": "CC(=O)OCC(=O)[C@@]1(O)CC[C@H]2[C@@H]3CCC4=CC(=O)CC[C@]4(C)[C@H]3[C@@H](O)C[C@@]21C", "loss of total cells": -9.4}
{"smiles": "CCCN(CCC)S(=O)(=O)c1ccc(C(=O)O)cc1", "loss of total cells": -6.4}
{"smiles": "CC(N)C12CC3CC(CC(C3)C1)C2", "note": "(stereo not given)", "loss of total cells": 7.2}
{"smiles": "CON", "loss of total cells": 3}
{"smiles": "Cn1c2ncnc-2c(O)n(C)c1=O", "loss of total cells": 4.5}
{"smiles": "CC(COc1ccccc1)NC(C)C(O)c1ccc(O)cc1", "note": "(stereo not given)", "loss of total cells": -14.3}
{"smiles": "CN(C)CCCO[C@@H]1[C@H]2OC(C)(C)O[C@H]2O[C@@H]1[C@H](O)CO", "loss of total cells": -8.4}
{"smiles": "CS(=O)(=O)c1ccc([C@@H](O)[C@@H](CO)NC(=O)C(Cl)Cl)cc1", "loss of total cells": -2.2}
{"smiles": "C/C=N/N(C)C=O", "loss of total cells": 15.2}
{"smiles": "C1CNCCN1", "loss of total cells": -13.7}
{"smiles": "NNC(=O)c1ccncc1.Nc1ccc(C(=O)O)c(O)c1", "loss of total cells": 22}
{"smiles": "CC(C)NCC(O)c1cc(O)cc(O)c1", "note": "(stereo not given)", "loss of total cells": 14.2}
{"smiles": "O=C(/C=C/c1ccccc1)c1ccc(O[C@@H]2O[C@H](CO)[C@@H](O)[C@H](O)[C@H]2O)cc1O", "loss of total cells": -8.5}
{"smiles": "CCN(CC)CCCC(C)Nc1c2ccc(Cl)cc2nc2ccc(OC)cc12", "note": "(stereo not given) [Quinacrine dihydrochloride]", "loss of total cells": 53.2}
{"smiles": "CCN1CCCC1CNC(=O)c1cc(S(N)(=O)=O)ccc1OC", "note": "(stereo not given)", "loss of total cells": 4}
{"smiles": "O=C(OOC(=O)c1ccccc1)c1ccccc1", "loss of total cells": 2.2}
{"smiles": "Cn1c(=O)c2nc(C3CCCC3)[nH]c2n(C)c1=O", "loss of total cells": 18.9}
{"smiles": "CCN1CCCC(OC(=O)C(c2ccccc2)c2ccccc2)C1", "note": "(stereo not given)", "loss of total cells": 7.8}
{"smiles": "COC(=O)C[C@H]1C(C)(C)[C@@H](O)[C@@H]2CC3=C4C=C(OC)O[C@@H](c5ccoc5)[C@]4(C)CCC3[C@@]1(C)C2=O", "note": "(stereo partly drawn) [3-DEOXO-3beta-HYDROXYMEXICANOLIDE 16-ENOL ETHER]", "loss of total cells": 15.2}
{"smiles": "CC1(C)CC[C@]2(C(=O)O)CC[C@]3(C)C(=CC[C@@H]4[C@@]5(C)CC[C@H](O)C(C)(C)[C@@H]5CC[C@]43C)[C@@H]2C1", "loss of total cells": 4.8}
{"smiles": "Cc1onc(-c2ccccc2Cl)c1C(=O)N[C@@H]1C(=O)N2[C@@H]1SC(C)(C)[C@@H]2C(=O)O", "loss of total cells": 39.8}
{"smiles": "O=C(O[C@H]1CN2CCC1CC2)N1CCc2ccccc2[C@@H]1c1ccccc1", "loss of total cells": 10.9}
{"smiles": "CC[C@H]1C(=O)OC[C@@H]1Cc1cncn1C", "loss of total cells": 5.2}
{"smiles": "CC1=C2C(=CO[C@H](C)[C@H]2C)C(=O)C(C(=O)O)=C1O", "loss of total cells": -0.4}
{"smiles": "COc1cc(OC)c2c(=O)c(OC)c(-c3ccc(OC)c(OC)c3)oc2c1", "loss of total cells": 11.4}
{"smiles": "CCCCCCCCCc1ccc(OCCOCCOCCOCCOCCOCCOCCOCCOCCO)cc1", "loss of total cells": 17.4}
{"smiles": "CC(=O)OC(C)(C)[C@@H]1Cc2cc3ccc(=O)oc3cc2O1", "loss of total cells": 10.4}
{"smiles": "C[C@@H]1CC[C@H]2C(C)(C)[C@H]3C[C@@]12CC[C@@]3(C)O", "loss of total cells": 0}
{"smiles": "CCN(CC)CCOCCOC(=O)C(CC)(CC)c1ccccc1", "loss of total cells": 28}
{"smiles": "CN(C)c1ccc2nc3ccc(=[N+](C)C)cc-3sc2c1", "loss of total cells": 14}
{"smiles": "O=C1C(=O)c2ccccc2C(O)=C1C1CCC(c2ccc(Cl)cc2)CC1", "note": "(stereo not given)", "loss of total cells": 19.6}
{"smiles": "NC(Cc1ccc(F)cc1)C(=O)O", "note": "(stereo not given)", "loss of total cells": 18.9}
{"smiles": "O=c1oc2c(O)c(O)cc3c(=O)oc4c(O)c(O)cc1c4c23", "loss of total cells": 5.3}
{"smiles": "CCOC(=O)CCC(=O)O[C@H]1[C@H](O[C@@H]2[C@@H](C)[C@H](O[C@H]3C[C@@](C)(OC)[C@@H](O)[C@H](C)O3)[C@@H](C)C(=O)O[C@H](CC)[C@@](C)(O)[C@H](O)[C@@H](C)C(=O)[C@H](C)C[C@@]2(C)O)O[C@H](C)C[C@@H]1N(C)C", "loss of total cells": -22.2}
{"smiles": "C=CC(N)CCC(=O)O", "note": "(racemic) [(±)-gamma-Vinyl GABA]", "loss of total cells": 16.4}
{"smiles": "Nc1nc(=O)c2[nH]c(=O)cnc2[nH]1", "loss of total cells": 4.4}
{"smiles": "O=C(O)CCNC(=O)c1ccccc1", "loss of total cells": 8.3}
{"smiles": "C=C1c2c(Cl)ccc(O)c2C(O)=C2C(=O)[C@]3(O)C(O)=C(C(N)=O)C(=O)[C@@H](N(C)C)[C@@H]3[C@@H](O)[C@H]12.O=C(O)c1cc(S(=O)(=O)O)ccc1O", "loss of total cells": 9.1}
